Measured values: PMC9751088, “Structure of the Acidobacteria homodimeric reaction center bound with cytochrome c” (Nature Communications, 2022)

Molecular target: PscA (Chloracidobacterium thermophilum)
Assay: cryo-EM structure; CabRCL (larger form with PscB and PscZ), native complex purified from C. thermophilum membranes in Triton X-100; 2.61 Å global, cytoplasmic region ~3.5 to ~5.0 Å; 20 mM Tris-HCl pH 7.6, 10 mM ascorbic acid, 0.03% Triton X-100; both purified

B1: PscB (protein, UniProt G2LDR7 1-179)
chain: MKGKVTMAAEEKAETTNGAPAETPALAPAKAAAKAAAKAPAKAAAKAAPPPIPGPPSRLSRPKTAAPKKKRERQIYTIIEELCIGCGFCTDECPPKVNAILPRDVEAVLDGGETYWIDQTRCISCSLCFVAGTCPTDAVVFTEGGVSRTQYMEDYLHIEMVDEPYWRQRNELSRIGSIL
For B1, which binding is on record?
The binding was “binds weakly”.

Results are given in words; binding and its absence hold for the method and conditions named. Binding calls can cover weak binding; strength is not graded here.
